Measured values published in PMC10572892.
No constants are given. Whether binding was seen depends on the method and setting. Binding seen in cells or lysates may run through a third protein. Some results given as binding are weak or reduced against the parent protein; the word gives no strength. For part of these data: Tags and fused reporters may be left off the sequences shown.

The chains behind the UniProt entries cited, without tags or fusion partners. Where a name states a change or a piece, a line headed by the entry shows the natural chain unless it says otherwise. Residues count along the entry.
UniProt O60331: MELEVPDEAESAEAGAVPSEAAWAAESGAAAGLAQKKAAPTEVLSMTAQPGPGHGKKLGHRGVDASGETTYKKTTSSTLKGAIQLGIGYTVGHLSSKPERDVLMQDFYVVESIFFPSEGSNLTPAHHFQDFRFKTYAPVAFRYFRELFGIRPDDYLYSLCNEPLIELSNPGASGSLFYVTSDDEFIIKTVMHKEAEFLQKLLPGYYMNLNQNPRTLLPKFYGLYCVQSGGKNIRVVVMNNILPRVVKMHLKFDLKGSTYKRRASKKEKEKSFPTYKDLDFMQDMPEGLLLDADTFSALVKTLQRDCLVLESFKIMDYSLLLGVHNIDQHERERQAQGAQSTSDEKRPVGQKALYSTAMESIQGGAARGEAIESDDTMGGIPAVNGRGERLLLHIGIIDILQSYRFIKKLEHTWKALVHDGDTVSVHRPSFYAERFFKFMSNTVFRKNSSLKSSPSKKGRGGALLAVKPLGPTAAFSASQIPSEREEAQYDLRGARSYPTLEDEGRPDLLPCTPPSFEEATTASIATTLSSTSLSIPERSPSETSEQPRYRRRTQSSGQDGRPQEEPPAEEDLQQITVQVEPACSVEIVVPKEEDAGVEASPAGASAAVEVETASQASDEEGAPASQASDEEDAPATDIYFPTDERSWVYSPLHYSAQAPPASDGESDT
UniProt P35240: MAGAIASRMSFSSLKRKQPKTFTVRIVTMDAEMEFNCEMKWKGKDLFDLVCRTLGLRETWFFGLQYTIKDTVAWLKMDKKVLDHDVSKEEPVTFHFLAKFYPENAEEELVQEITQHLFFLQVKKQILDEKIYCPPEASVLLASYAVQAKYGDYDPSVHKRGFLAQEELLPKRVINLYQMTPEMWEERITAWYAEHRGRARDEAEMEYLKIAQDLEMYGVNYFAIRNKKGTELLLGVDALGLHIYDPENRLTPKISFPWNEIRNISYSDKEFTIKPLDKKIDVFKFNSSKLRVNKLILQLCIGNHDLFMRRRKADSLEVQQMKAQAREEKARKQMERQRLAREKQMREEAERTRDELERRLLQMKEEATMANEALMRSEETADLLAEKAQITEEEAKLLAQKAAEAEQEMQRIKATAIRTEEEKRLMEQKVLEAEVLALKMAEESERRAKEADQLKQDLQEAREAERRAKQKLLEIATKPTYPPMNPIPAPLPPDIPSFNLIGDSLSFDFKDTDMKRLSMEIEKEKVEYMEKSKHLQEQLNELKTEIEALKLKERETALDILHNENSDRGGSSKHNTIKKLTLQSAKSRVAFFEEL
GFP-Merlin FERM domain: residues 18-312 of P35240
FLAG-Merlin FERM domain: residues 22-311 of P35240
GFP-F3 subdomain of the Merlin FERM domain: residues 221-312 of P35240
UniProt P11142: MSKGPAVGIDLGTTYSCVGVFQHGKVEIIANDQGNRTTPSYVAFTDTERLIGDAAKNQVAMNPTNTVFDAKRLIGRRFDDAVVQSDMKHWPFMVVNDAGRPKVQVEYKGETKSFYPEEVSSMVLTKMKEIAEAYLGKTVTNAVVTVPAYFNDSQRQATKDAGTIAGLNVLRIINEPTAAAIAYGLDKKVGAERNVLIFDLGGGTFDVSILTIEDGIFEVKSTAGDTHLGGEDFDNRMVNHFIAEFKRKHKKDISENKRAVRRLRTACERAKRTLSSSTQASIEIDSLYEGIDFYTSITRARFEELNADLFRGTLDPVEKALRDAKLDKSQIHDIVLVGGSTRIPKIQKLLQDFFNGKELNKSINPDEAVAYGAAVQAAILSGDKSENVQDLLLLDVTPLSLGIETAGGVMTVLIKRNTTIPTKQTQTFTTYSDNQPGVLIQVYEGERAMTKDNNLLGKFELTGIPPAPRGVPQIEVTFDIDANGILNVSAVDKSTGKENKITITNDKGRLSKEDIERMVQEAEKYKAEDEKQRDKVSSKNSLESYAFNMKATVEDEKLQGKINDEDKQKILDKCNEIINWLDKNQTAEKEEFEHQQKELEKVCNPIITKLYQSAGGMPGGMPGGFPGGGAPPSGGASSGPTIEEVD

Legend:
FLAG-PIP5Kγ90 = FLAG-PIP5Kγ90 (UniProt O60331); test: co-IP; FLAG-IP (anti-FLAG M2 affinity gel, 4 h, 4 °C) from lysates of transfected HEK293 or WT HEK293A cells; lysis buffer 50 mM Tris pH 7.4, 150 mM NaCl, 1% Triton X-100; Western blot; some panels with siCtrl or siLATS1, in Merlin KO or LATS1/2 KO HEK293A cells, or with co-transfected V5-Hsc70, HA-PIP5Kγ90 or GFP-PIP5Kγ90 WT
FLAG-Merlin WT [1] = molecular target: FLAG-Merlin WT (UniProt P35240); test: as above
FLAG-Merlin WT [2] = molecular target: FLAG-Merlin WT (UniProt P35240); test: co-IP; FLAG-IP (anti-FLAG M2 affinity gel) from lysates of HEK293 cells co-transfected with FLAG-Merlin and GFP-PIP5Kγ90 KD; Western blot
FLAG-Merlin FERM domain = FLAG-Merlin FERM domain (UniProt P35240); test: co-IP; FLAG-IP (anti-FLAG M2 affinity gel, 4 h, 4 °C) from lysates of transfected HEK293 or WT HEK293A cells; lysis buffer 50 mM Tris pH 7.4, 150 mM NaCl, 1% Triton X-100; Western blot; some panels with siCtrl or siLATS1, in Merlin KO or LATS1/2 KO HEK293A cells, or with co-transfected V5-Hsc70, HA-PIP5Kγ90 or GFP-PIP5Kγ90 WT
[3] = molecular target: GFP-F3 subdomain of the Merlin FERM domain (UniProt P35240); test: co-IP; GFP-IP (anti-GFP antibody, protein A/G PLUS-Agarose, 4 °C) from lysates of transfected HEK293 cells; lysis buffer 50 mM Tris pH 7.4, 150 mM NaCl, 1% Triton X-100; Western blot; one panel without and with co-transfected Myc-PIP5Kγ90
GFP-Merlin FERM domain = GFP-Merlin FERM domain (UniProt P35240); test: as above
HA-Merlin = HA-Merlin (UniProt P35240); test: co-IP; HA-IP (anti-HA antibody, protein A/G PLUS-Agarose, 4 °C) from lysates of transfected HEK293 cells; lysis buffer 50 mM Tris pH 7.4, 150 mM NaCl, 1% Triton X-100; Western blot
[4] = molecular target: endogenous PIP5Kγ (human (endogenous in HEK293)) (UniProt O60331); test: co-IP; IP of endogenous PIP5Kγ (anti-PIP5Kγ antibody or control IgG, 6 h, 4 °C, protein A/G PLUS-Agarose) from HEK293 cell lysates; Western blot of Hsc70
HA-LATS1 = molecular target: T1, HA-LATS1 (UniProt O95835); test: co-IP; HA-IP (anti-HA antibody, protein A/G PLUS-Agarose, 4 °C) from lysates of transfected HEK293 cells; lysis buffer 50 mM Tris pH 7.4, 150 mM NaCl, 1% Triton X-100; Western blot
T1 sequence: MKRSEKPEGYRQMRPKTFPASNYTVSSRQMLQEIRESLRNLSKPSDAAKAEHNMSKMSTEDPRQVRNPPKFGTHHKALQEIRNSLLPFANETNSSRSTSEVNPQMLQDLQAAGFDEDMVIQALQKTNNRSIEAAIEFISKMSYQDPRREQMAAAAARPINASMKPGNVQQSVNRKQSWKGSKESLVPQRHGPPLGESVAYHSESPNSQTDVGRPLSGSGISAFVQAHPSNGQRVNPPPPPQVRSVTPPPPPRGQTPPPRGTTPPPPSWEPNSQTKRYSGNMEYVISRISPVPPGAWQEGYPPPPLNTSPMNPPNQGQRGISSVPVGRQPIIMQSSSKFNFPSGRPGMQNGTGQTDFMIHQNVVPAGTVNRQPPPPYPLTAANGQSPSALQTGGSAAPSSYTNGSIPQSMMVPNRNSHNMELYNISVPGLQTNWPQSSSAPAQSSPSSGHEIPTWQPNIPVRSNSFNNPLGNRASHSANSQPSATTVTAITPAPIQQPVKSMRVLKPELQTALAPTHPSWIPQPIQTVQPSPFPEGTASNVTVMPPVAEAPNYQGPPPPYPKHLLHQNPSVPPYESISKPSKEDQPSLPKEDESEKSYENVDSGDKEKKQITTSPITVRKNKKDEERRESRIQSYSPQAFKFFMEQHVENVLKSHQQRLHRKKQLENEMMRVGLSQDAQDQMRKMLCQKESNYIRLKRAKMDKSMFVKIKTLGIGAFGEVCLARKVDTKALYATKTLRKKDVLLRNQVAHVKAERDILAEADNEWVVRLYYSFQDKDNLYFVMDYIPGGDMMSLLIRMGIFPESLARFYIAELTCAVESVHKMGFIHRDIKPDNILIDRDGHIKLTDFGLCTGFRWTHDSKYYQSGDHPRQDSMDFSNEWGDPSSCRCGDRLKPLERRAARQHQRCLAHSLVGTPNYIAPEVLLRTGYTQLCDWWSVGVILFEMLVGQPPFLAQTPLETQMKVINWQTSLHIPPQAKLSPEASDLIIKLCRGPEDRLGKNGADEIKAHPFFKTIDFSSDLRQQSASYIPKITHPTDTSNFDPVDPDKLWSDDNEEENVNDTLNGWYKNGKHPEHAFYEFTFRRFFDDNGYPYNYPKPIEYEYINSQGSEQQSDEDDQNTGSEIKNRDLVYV

## GFP-Merlin (from UniProt P35240 1-595)
FLAG-PIP5Kγ90
  binding: binds

## GFP-PIP5Kγ90 WT (from UniProt O60331 1-668) (enzyme)
FLAG-Merlin WT [1]
  binding: binds

## GFP-tagged kinase-dead (KD) PIP5Kγ90 (K407N, K408N) (from UniProt O60331 1-668) (enzyme)
FLAG-Merlin WT [2]
  binding: binds

## HA-Merlin (from UniProt P35240 1-595)
FLAG-PIP5Kγ90
  binding: binds

## HA-PIP5Kγ90 (from UniProt O60331 1-668) (enzyme)
FLAG-Merlin WT [1]
  binding: binds
FLAG-Merlin FERM domain
  binding: binds
[3]
  binding: binds
GFP-Merlin FERM domain
  binding: binds

## Myc-PIP5Kγ90 (from UniProt O60331 1-668) (enzyme)
HA-Merlin
  binding: binds

## V5-Hsc70 (from UniProt P11142 1-646)
FLAG-PIP5Kγ90
  binding: binds

## endogenous Hsc70 (from UniProt P11142 1-646)
[4]
  binding: binds
FLAG-PIP5Kγ90
  binding: binds

## endogenous Merlin (from UniProt P35240 1-595)
FLAG-PIP5Kγ90
  binding: binds

## endogenous PIP5Kγ (from UniProt O60331 1-668) (enzyme)
HA-LATS1
  binding: binds
HA-Merlin
  binding: binds
